Results are given in words; binding and its absence hold for the method and conditions named. In cells and extracts the contact can be indirect. Some binding calls cover weakened binding; strength is not graded here.

Chains of the proteins cited; added tags and fusions are not shown. Lines headed by an entry give the natural chain unless they say otherwise; changes in a name come on top. A line that says so, or that is headed by a name, gives the form on record, which may keep a tag or linker.
UniProt P40763: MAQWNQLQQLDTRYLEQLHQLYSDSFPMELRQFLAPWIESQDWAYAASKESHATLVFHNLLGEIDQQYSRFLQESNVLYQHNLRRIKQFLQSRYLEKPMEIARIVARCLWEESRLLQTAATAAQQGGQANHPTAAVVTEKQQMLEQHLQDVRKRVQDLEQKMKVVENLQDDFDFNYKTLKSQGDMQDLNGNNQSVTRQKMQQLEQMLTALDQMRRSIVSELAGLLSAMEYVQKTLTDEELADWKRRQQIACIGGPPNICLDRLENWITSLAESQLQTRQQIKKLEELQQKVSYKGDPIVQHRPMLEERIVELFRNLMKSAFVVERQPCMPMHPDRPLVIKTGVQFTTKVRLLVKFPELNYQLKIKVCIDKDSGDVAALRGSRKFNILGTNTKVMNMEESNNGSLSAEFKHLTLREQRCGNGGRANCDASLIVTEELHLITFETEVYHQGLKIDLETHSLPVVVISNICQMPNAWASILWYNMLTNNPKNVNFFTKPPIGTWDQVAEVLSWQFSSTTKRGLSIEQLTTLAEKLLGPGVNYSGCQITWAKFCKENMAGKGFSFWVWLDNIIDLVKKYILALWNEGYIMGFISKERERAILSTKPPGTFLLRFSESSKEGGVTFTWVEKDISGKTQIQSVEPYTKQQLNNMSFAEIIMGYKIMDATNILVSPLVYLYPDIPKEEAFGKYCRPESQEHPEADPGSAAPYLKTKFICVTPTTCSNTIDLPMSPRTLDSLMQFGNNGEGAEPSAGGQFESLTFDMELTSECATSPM
UniProt O60674: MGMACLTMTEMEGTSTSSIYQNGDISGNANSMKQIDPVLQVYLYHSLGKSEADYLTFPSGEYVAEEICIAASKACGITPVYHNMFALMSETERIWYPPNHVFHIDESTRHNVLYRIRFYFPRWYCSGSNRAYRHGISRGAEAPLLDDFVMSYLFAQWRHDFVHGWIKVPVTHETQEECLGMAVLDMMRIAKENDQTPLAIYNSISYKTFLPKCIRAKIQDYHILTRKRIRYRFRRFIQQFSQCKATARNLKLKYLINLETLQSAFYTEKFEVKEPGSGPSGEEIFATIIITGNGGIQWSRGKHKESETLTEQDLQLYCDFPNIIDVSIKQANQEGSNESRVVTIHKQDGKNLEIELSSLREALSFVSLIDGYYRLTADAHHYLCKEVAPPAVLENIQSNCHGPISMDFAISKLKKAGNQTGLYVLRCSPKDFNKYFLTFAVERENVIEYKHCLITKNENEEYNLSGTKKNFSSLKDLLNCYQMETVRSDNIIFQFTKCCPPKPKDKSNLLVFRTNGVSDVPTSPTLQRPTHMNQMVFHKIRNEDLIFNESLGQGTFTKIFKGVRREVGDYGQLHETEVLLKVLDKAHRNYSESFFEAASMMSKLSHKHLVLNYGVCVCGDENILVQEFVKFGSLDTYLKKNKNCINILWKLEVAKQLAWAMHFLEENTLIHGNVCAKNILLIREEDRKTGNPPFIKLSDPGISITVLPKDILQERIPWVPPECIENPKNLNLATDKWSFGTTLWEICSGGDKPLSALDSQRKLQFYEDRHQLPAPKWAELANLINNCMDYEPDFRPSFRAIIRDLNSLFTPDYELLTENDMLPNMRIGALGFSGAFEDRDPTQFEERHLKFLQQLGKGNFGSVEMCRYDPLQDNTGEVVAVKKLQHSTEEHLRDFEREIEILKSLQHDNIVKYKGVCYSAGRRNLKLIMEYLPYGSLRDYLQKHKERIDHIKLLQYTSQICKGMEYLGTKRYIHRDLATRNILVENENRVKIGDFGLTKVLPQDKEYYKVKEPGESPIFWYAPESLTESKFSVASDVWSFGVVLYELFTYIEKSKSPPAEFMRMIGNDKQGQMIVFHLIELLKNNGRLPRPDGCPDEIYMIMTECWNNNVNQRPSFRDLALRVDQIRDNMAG
standard isoform of CD44 (CD44s, 85 kDa) (P16070-12, form named): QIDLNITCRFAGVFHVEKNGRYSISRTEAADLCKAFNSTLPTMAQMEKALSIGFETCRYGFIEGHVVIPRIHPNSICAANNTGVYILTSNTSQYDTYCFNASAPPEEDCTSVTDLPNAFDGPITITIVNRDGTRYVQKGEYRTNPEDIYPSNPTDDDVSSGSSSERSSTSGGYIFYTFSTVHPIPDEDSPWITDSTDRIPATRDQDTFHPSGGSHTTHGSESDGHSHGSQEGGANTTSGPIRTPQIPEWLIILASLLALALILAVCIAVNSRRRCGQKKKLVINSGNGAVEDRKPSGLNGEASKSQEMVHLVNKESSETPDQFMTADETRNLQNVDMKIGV

Assay [1] concerns the target Signal transducer and activator of transcription 3 (STAT3) (human (endogenous in MCF10DCIS)) (UniProt P40763). The assay can be described thus: co-IP; MCF10DCIS cell lysates, cells incubated 24 h with or without BXL0124 (10 nM); antibodies to STAT3 or JAK2 immobilised on protein G Dynabeads, 10-minute incubation, three washes; detection by Western blot.
The target of assay [2] is Janus kinase 2 (JAK2) (human (endogenous in MCF10DCIS)) (UniProt O60674). Described as above.

As for “standard isoform of CD44 (CD44s, 85 kDa) (from UniProt P16070-12 21-361) (receptor)”, the binding entry in assay [1] and in assay [2] was “binds” each time.

The values are drawn from publication PMC3543376.
